Experimental findings from PMC8344065 are described below.

No constants are given. Whether binding was seen depends on the method and setting. Binding seen in cells or lysates may run through a third protein. Binding calls can cover weak binding; strength is not graded here.

In the test the target is Receptor-interacting protein kinase 1 (RIPK1), rat cardiomyocytes (rat (endogenous in neonatal Sprague-Dawley cardiomyocytes)). Description: co-IP; neonatal rat cardiomyocytes lysed in RIPA buffer, normoxia and hypoxia (also with LC3-OE or LC3-KD adenovirus); anti-LC3B or anti-RIPK1 antibody 6 h at 4°C, protein A/G-Sepharose overnight at 4°C, 5 washes with PBS; rabbit IgG as negative control.

B1: Receptor-interacting protein kinase 3 (RIPK3), rat cardiomyocytes (protein, UniProt Q9Z2P5 1-478)
chain: MSSVKLWLNGASSISLVGSEELENLGFVGKGGFGAVFRARHTAWNLDVAVKIVNSKKISREVKAMVNLRHENVLLLLGVTENLEWDYVYGPALVTGFMENGSLSGLLQPSCPRPWPLLCRLLEEVVLGMCYLHSLNPSLLHRDLKPSNVLLDPELHAKLADFGLSTFQGGSQSGSGSGSRDSGGTLAYLAPELLDNDGKASKASDVYSFGVLVWTVLAGREAEVVDKTSLIRGAVCNRQRRPPLTELPPDSPETPGLEGLKELMTHCWSSEPKDRPSFQDCESKTNNVYILVQDKVDAAVSKVKHYLSQYRSSDTKLSARESSQKGTEVDCPRETIVYEMLDRLHLEEPSGSVPERLTSLTERRGKEASFGHATPAGTSSDTLAGTPQIPHTLPSRGTTPRPAFTETPGPDPQRNQGDGRNSNPWYTWNAPNPMTGLQSIVLNNCSEVQIGQHNCMSVQPRTAFPKKEPAQFGRGRGW
With B1, the binding result is reported as “binds”.
